The full ranking holds about 33,000 sequences; the median of “E-score (-0.5 to 0.5)” is about -8e-05, and the highest 2% start at about 0.23. This is one part of the list.
What follows are sequences tested against T1, Nrg2 (UniProt P38082) (assay: PBM E-score (8-mer binding enrichment) (E-score (-0.5 to 0.5)); higher = stronger / more preferred TF binding). Settings: protein concentration: 100 nM; construct: GST-full length.
T1 sequence: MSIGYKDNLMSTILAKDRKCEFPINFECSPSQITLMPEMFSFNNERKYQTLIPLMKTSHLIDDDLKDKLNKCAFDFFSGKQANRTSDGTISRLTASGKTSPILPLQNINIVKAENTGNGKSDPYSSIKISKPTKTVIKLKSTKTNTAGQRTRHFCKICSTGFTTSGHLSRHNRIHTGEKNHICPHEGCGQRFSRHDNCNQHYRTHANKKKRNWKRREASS
Procedure: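 Universal 'all 10-mer' protein binding microarrays (Agilent AMADID 015681) probed with GST-tagged S. cerevisiae TFs (full-length or DBD) made by in vitro transcription/translation (PURExpress), about 100-200 nM. Bound TF was detected with fluorescent anti-GST. Each ungapped 8-mer (which stands for itself and its reverse complement) is scored by the PBM enrichment score (E-score), a modified Wilcoxon-Mann-Whitney statistic from -0.5 to +0.5, computed with the Universal PBM Analysis Suite. Scale: above 0.35 generally sequence-specific binding.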

Sequence | PBM E-score
GTTGTAGA | -0.053
AAGCAGAT | 0.114
CGTGTCTC | -0.14
ACGATACC | 0.0391
ATGTCACC | -0.0166
TGCGATAA | 0.209
CGTACACA | -0.0246
CCTTCCTC | -0.262
CACTAACG | -0.142
CGGTAAAA | 0.0792
GACCTGCC | -0.0689
GAATATTC | 0.24
GCGTGACC | 0.00224
CACAGAGA | 0.0268
AAGCCCAA | -0.122
CAACCGGA | -0.0402
CAATCTAG | -0.0575
AACGTGGC | -0.00648
CGATCCGC | 0.0427
ACTCGGGA | -0.0463
AGTATTAC | -0.0315
AGTTACTG | 0.0449
CCCTCAGG | 0.0483
ATGATGTC | 0.0758

Sequence | PBM E-score
ACTGAAAT | 0.038
AGAAATGG | 0.0198
CCTGGCTA | -0.156
CAGGAGTC | 0.0361
CACAAGGC | -0.153
TGAGCTCA | 0.155
AATGTCCG | 0.0594
AGACTGGA | -0.0653
CACATGTG | 0.0391
CATCAACA | 0.15
AACAAAAC | 0.131
ACCGACTG | -0.0866
ATAACAGA | 0.0725
CAGTAGGA | -0.0996
CACCGGTC | -0.373
AGGGTTGA | 0.03
AAATCCTT | -0.00642
TACCGGCA | -0.0644
CCCGGGCA | -0.111
CTCGAATC | -0.0229
AGACCGGG | -0.0868
ACGCAAGG | 0.0308
CATGTCCG | -0.116
AGCGCTAG | -0.126

Some of the entries above in a different format:
Sequence	PBM E-score
GTTGTAGA	-0.053
AAGCAGAT	0.114
CGTGTCTC	-0.14
ATGTCACC	-0.0166
TGCGATAA	0.209
CCTTCCTC	-0.262
CACTAACG	-0.142
GACCTGCC	-0.0689
GAATATTC	0.24
AAGCCCAA	-0.122
CAATCTAG	-0.0575
ACTCGGGA	-0.0463
AGTTACTG	0.0449
CCCTCAGG	0.0483
ACTGAAAT	0.038
CCTGGCTA	-0.156
CAGGAGTC	0.0361
CACAAGGC	-0.153
AATGTCCG	0.0594
CACATGTG	0.0391
AACAAAAC	0.131
ATAACAGA	0.0725
CACCGGTC	-0.373
AGGGTTGA	0.03
TACCGGCA	-0.0644
CTCGAATC	-0.0229
ACGCAAGG	0.0308
AGCGCTAG	-0.126

(continued)

Sequence | PBM E-score
CTACCTCA | -0.118
CCTTCAGA | -0.132
CCGGACGA | -0.0224
CACACGCG | 0.112
AATCTTCC | -0.09
GAGATTCC | 0.086
AGAAGTCT | -0.196
ATGTTAGG | 0.00988
ATCTAATG | -0.058
CCATTAGA | -0.195
AGAACACC | -0.0968
CACAAACA | -0.0179
CTACATTA | 0.0766
ACACAAGA | 0.0988
ATTACGAC | 0.0725
GAGTCCCA | 0.044
AGTTAGGG | 0.0307
AAACTTAA | 0.0948
CCCGTTCC | -0.00482
AATAGGAG | -0.286
GACGCAGC | -0.095
TAGAAAGA | -0.259
ACTAGGAG | -0.0682
AATTGAAG | -0.127

Sequence | PBM E-score
AGAAGCGC | 0.101
ACTCTTAC | 0.0693
CGGTCCGA | 0.0617
AAGTGTAG | -0.0426
AAAAAGTG | 0.0286
GTGTACGA | -0.0251
ACAAGCAC | -0.129
ATAGTGAT | 0.0828
CCTGAAAA | -0.0155
GCCCAGAC | -0.259
CCGGTCGC | -0.141
AATAAGTA | 0.111
GGGGTTCA | 0.166
AGTCCAAC | 0.0694
ATCTTTCA | 0.131
AGTCTTGC | -0.0127
AGATTTGA | 0.129
GCGCCCTA | -0.021
AAGCCCTT | -0.0684
AGGGGACG | 0.0757
CATACCCA | -0.0106
CTGGTTCA | -0.118

Looked up one by one from the entries so far (2):
Sequence | PBM E-score
AGATTTGA | 0.129
CCGGTCGC | -0.141

— the supplement of paper PMC3334620
